Measured values reported in patent publication US9925187B2, “Pyrazolopyridazines and methods for treating retinal-degenerative diseases and hearing loss associated with usher syndrome” (Usher III Initiative, Inc., priority 2011, dated 2018).
Some of these results come from one statement about several compounds together.

What follows are molecules tested on N48K Clarin-1 (assay: Restoration of N48K Clarin-1 expression in HEK293-Clarin-1 N48K-HA D9 cells (HA-tag immunostaining, high content imaging)). Conditions: HEK293-Clarin-1 N48K-HA D9 cell line, 24 hr incubation with compound, HA-Clarin-1 staining density per cell; listed as compound 62; read-out: IC50 values for activity according to the assay method of Example 92.
Format: cell-based
Molecule `O=C(Cn1nc(-c2ccccc2)c2c(Cl)c(-c3ccccc3)nnc21)N1CCC(F)(F)C1` [Compound 62, 2-(4-chloro-3,5-diphenyl-1H-pyrazolo[3,4-c]pyridazin-1-yl)-1-(3,3-difluoropyrrolidin-1-yl)ethanone] has an IC50 of at most 5 µM.

Same assay, conditions: HEK293-Clarin-1 N48K-HA D9 cell line, 24 hr incubation with compound, HA-Clarin-1 staining density per cell; read-out: IC50 values for activity according to the assay method of Example 92
Work on `CN1CCC(N(C)C(=O)Cn2nc(-c3ccccc3)c3c(Cl)c(-c4ccccc4)nnc32)CC1` [Compound 51, 2-(4-chloro-3,5-diphenyl-1H-pyrazolo[3,4-c]pyridazin-1-yl)-N-methyl-N-(1-methylpiperidin-4-yl)acetamide] yielded an IC50 of at most 10 µM.
`CS(=O)(=O)N1CCN(C(=O)Cn2nc(-c3ccccc3)c3c(Cl)c(-c4ccccc4)nnc32)CC1` [Compound 52, 2-(4-chloro-3,5-diphenyl-1H-pyrazolo[3,4-c]pyridazin-1-yl)-1-(4-(methylsulfonyl)piperazin-1-yl)ethanone] showed an IC50 of at most 10 µM.
`CN(C)CCN(C)C(=O)Cn1nc(-c2ccccc2)c2c(Cl)c(-c3ccccc3)nnc21` [Compound 53, 2-(4-chloro-3,5-diphenyl-1H-pyrazolo[3,4-c]pyridazin-1-yl)-N-(2-(dimethylamino)ethyl)-N-methylacetamide] was tested, and the IC50 was at most 10 µM.
`O=C(Cn1nc(-c2ccccc2)c2c(Cl)c(-c3ccccc3)nnc21)N1CCS(=O)(=O)CC1` [Compound 54, 2-(4-chloro-3,5-diphenyl-1H-pyrazolo[3,4-c]pyridazin-1-yl)-1,1-dioxido-4-thiomorpholinoethanone] showed an IC50 of at most 10 µM.
`O=C(Cn1nc(-c2ccccc2)c2c(Cl)c(-c3ccccc3)nnc21)N1CCC(O)CC1` [Compound 55, 2-(4-chloro-3,5-diphenyl-1H-pyrazolo[3,4-c]pyridazin-1-yl)-1-(4-hydroxypiperidin-1-yl)ethanone] gave an IC50 of at most 10 µM.
Molecule `O=C(Cn1nc(-c2ccccc2)c2c(Cl)c(-c3ccccc3)nnc21)N1CCN(CC(F)(F)F)CC1` [Compound 56, 2-(4-chloro-3,5-diphenyl-1H-pyrazolo[3,4-c]pyridazin-1-yl)-1-(4-(2,2,2-trifluoroethyl)piperazin-1-yl)ethanone] has an IC50 of at most 10 µM.
In the case of `O=C(Cn1nc(-c2ccccc2)c2c(Cl)c(-c3ccccc3)nnc21)NCc1cccnc1` [Compound 57, 2-(4-chloro-3,5-diphenyl-1H-pyrazolo[3,4-c]pyridazin-1-yl)-N-(pyridin-3-ylmethyl)acetamide], the IC50 is reported as at most 10 µM.
Work on `N#CC1CCCN(C(=O)Cn2nc(-c3ccccc3)c3c(Cl)c(-c4ccccc4)nnc32)C1` (stereo not drawn) [Compound 58, 1-(2-(4-chloro-3,5-diphenyl-1H-pyrazolo[3,4-c]pyridazin-1-yl)acetoyl)piperidine-3-carbonitrile] yielded an IC50 of at most 10 µM.
Molecule `CN(C)C1CCN(C(=O)Cn2nc(-c3ccccc3)c3c(Cl)c(-c4ccccc4)nnc32)CC1` [Compound 59, 2-(4-chloro-3,5-diphenyl-1H-pyrazolo[3,4-c]pyridazin-1-yl)-1-(4-(dimethylamino)piperidin-1-yl)ethanone] has an IC50 of at most 10 µM.
Molecule `CN1CCC(NC(=O)Cn2nc(-c3ccccc3)c3c(Cl)c(-c4ccccc4)nnc32)CC1` [Compound 60, 2-(4-chloro-3,5-diphenyl-1H-pyrazolo[3,4-c]pyridazin-1-yl)-N-(1-methylpiperidin-4-yl)acetamide] has an IC50 of at most 10 µM.
Work on `CC1(NC(=O)Cn2nc(-c3ccccc3)c3c(Cl)c(-c4ccccc4)nnc32)CCC1` [Compound 61, 2-(4-chloro-3,5-diphenyl-1H-pyrazolo[3,4-c]pyridazin-1-yl)-N-(1-methylcyclobutyl)acetamide] yielded an IC50 of at most 10 µM.
Molecule `O=C(Cn1nc(-c2ccccc2)c2c(Cl)c(-c3ccccc3)nnc21)N1CCC(F)(F)C1` [Compound 62, 2-(4-chloro-3,5-diphenyl-1H-pyrazolo[3,4-c]pyridazin-1-yl)-1-(3,3-difluoropyrrolidin-1-yl)ethanone] has an IC50 of at most 10 µM.
Work on `CN1C[C@H]2C[C@@H]1CN2C(=O)Cn1nc(-c2ccccc2)c2c(Cl)c(-c3ccccc3)nnc21` [Compound 63, 2-(4-chloro-3,5-diphenyl-1H-pyrazolo[3,4-c]pyridazin-1-yl)-1-((1R,4R)-5-methyl-2,5-diazabicyclo[2.2.1]heptan-2-yl)ethanone] yielded an IC50 of at most 10 µM.
For `NC(=O)Cn1nc(-c2ccccc2)c2c(Cl)c(-c3ccccc3)nnc21` [Compound 64, 2-(4-chloro-3,5-diphenyl-1H-pyrazolo[3,4-c]pyridazin-1-yl)acetamide], the IC50 was at most 10 µM.
